# From patent US10857167B2, “Use of oligosaccharide compositions to enhance weight gain” (Children's Hospital Medical Center, priority 2015, dated 2020)
# Further values from the same series stand in other lists.
# Tested on: distal small bowel gene expression
# Assay: RNA sequencing / transcriptional analysis of small bowel 56 days after ICR (2′-FL signature response)
# Type: in vivo, mouse
# Source text: Luminal small bowel contents were expressed into AllProtect Tissue Reagent (Qiagen Inc, CA). Bacterial DNA was extracted using the AllPrep DNA/RNA Mini Kit (Qiagen Inc, CA), according to kit instructions and prior to sequencing (described below). Small bowel tissue samples for RNA were placed into RNA Later (Life Technologies, NY). RNA extraction was accomplished following Qiagen RNeasy Plus Kit instruction (Qiagen Inc, CA). All nucleic acid samples were then stored at -80 Celsius until sequenced (described below). Transcriptional analysis was carried out on resected and harvested small bowel samples obtained from operated mice taken to 8 weeks. Murine RNA sequencing libraries were prepared from approximately 1.5 μg RNA using the TruSeq RNA Sample Preparation Kit (Illumina, Calif.) and sequenced using the HiSeq 2000 Sequencing System (Illumina, Calif.) with single-end 50 bp reads. Following removal of primers and barcodes, sequences were aligned to the mm10 genome using reference annotations from UCSC (Rosenbloom et al. (2015) Nucleic acids research 43: […]-681) (n=36,186 entities). Aligned reads were quantified and used to compute reads per kilobase per million mapped reads (RPKM); raw counts were then normalized using the DESeq algorithm and each harvested sample was baselined to its own resected sample. A filter was applied to the data, requiring at least three reads in all samples of at least one of the four experimental conditions (n=14,489 entities). The data discussed in this publication have been deposited in NCBI's Gene Expression Omnibus and are accessible through NCBI Gene Expression Omnibus (GEO) Series accession number GSE72590. Edgar et al. (2002) Nucleic acids research 30: 207-210. In order to characterize the impact of 2'-FL supplementation while accounting for the effect of ileoecal resection, a t-test was applied between resected and harvested samples within control and experimental animals. Significance was set at a p-value of ≤0.05 and a fold change of 3, which generated 2,576 differentially regulated entities across two comparisons. Gene set unions and intersections of the control and experimental gene sets were identified through Venn diagrams. From the master list, the gene list specific to animals supplemented with 2'-FL were removed in order to identify genes differentially regulated only by ICR (n=546 entities); this gene set characterizes the adaptive response. Further, the 2'-FL response (n=2,030 entities) was identified by removing the adaptive response signature described above from the master list, leaving only genes regulated by 2'-FL supplementation after ICR which were not found in the non-supplemented adaptive response. Heatmaps were generated using hierarchical clustering with the Pearson's Centered distance metric and the average linkage rule; both entities and samples were clustered. All genomic analyses described above were performed in Strand NGS (Strand Life Sciences, CA). Gene list functional enrichment was initially discovered using ToppFun, a member of the ToppGene Suite. Chen et al. (2009) Nucleic acids research 37: […]-311. No statistical correction was selected. Gene lists were further analyzed using ClueGO, a plugin for Cytoscape designed to decipher functionally grouped gene ontology and pathway annotation networks. Bindea et al. (2009) Bioinformatics 25: 1091-1093. At the time of data analysis, the annotation files were updated from sources to Jan. 1, 2015. “GO Term Fusion” was enabled to manage ontologic term redundancy and network specificity was set to medium. Results were restricted to pathways with p≤0.05 using Benjamini-Hochberg correction and Kappa scoring was set to 0.4. Biocyc annotations were assigned a rectangle, gene ontology biologic processes were assigned an ellipse, and […] annotations were assigned a diamond shape. No meaning was assigned to size or color. […]
smiles,measurement,setting,value
"C[C@@H]1O[C@@H](O[C@H]2[C@H](O[C@H]3[C@H](O)[C@@H](O)C(O)O[C@@H]3CO)O[C@H](CO)[C@H](O)[C@@H]2O)[C@@H](O)[C@H](O)[C@@H]1O (stereo partly shown) [2′-FL, 2′-fucosyllactose]",Fold Change (Pre- to Post-op),gene Tmem201,−3.629
same,Fold Change (Pre- to Post-op),gene Tmem231,−7.662
same,Fold Change (Pre- to Post-op),gene Tmod2,−6.959
same,Fold Change (Pre- to Post-op),gene Tnfrsf19,−3.766
same,Fold Change (Pre- to Post-op),gene Tnfrsf22,−4.648
same,Fold Change (Pre- to Post-op),gene Tnfrsf26,−4.56
same,Fold Change (Pre- to Post-op),gene Tnks,−3.089
same,Fold Change (Pre- to Post-op),gene Tnrc6b,−6.379
same,Fold Change (Pre- to Post-op),gene Tnrc6c,−4.634
same,Fold Change (Pre- to Post-op),gene Tnrc18,−7.712
same,Fold Change (Pre- to Post-op),gene Tns1,−6.858
same,Fold Change (Pre- to Post-op),gene Tns3,−6.014
same,Fold Change (Pre- to Post-op),gene Tpp1,−3.05
same,Fold Change (Pre- to Post-op),gene Trabd2b,−3.697
same,Fold Change (Pre- to Post-op),gene Traf3,−3.02
same,Fold Change (Pre- to Post-op),gene Tram2,−3.411
same,Fold Change (Pre- to Post-op),gene Trf,−5.128
same,Fold Change (Pre- to Post-op),gene Trim44,−5.532
same,Fold Change (Pre- to Post-op),gene Trio,−4.393
same,Fold Change (Pre- to Post-op),gene Trip11,−4.536
same,Fold Change (Pre- to Post-op),gene Trpc4,−3.068
same,Fold Change (Pre- to Post-op),gene Trpm2,−4.564
same,Fold Change (Pre- to Post-op),gene Trpm6,−6.685
same,Fold Change (Pre- to Post-op),gene Trps1,−3.575
same,Fold Change (Pre- to Post-op),gene Trrap,−3.461
same,Fold Change (Pre- to Post-op),gene Tshz1,−3.979
same,Fold Change (Pre- to Post-op),gene Tshz2,−4.651
same,Fold Change (Pre- to Post-op),gene Tspan18,−4.858
same,Fold Change (Pre- to Post-op),gene Ttll5,−3.121
same,Fold Change (Pre- to Post-op),gene Ttyh3,−6.263
same,Fold Change (Pre- to Post-op),gene Tub,−3.359
same,Fold Change (Pre- to Post-op),gene Tubb4a,−7.968
same,Fold Change (Pre- to Post-op),gene Tusc5,−7.014
same,Fold Change (Pre- to Post-op),gene Uaca,−4.543
same,Fold Change (Pre- to Post-op),gene Ubap2,−8.098
same,Fold Change (Pre- to Post-op),gene Ubap2l,−3.895
same,Fold Change (Pre- to Post-op),gene Ube2o,−3.104
same,Fold Change (Pre- to Post-op),gene Ubr4,−5.118
same,Fold Change (Pre- to Post-op),gene Uhrf1bp1,−3.775
same,Fold Change (Pre- to Post-op),gene Unc5a,−9.201
same,Fold Change (Pre- to Post-op),gene Unc45b,−5.787
same,Fold Change (Pre- to Post-op),gene Usp11,−3.121
same,Fold Change (Pre- to Post-op),gene Usp36,−3.12
same,Fold Change (Pre- to Post-op),gene Usp43,−3.058
same,Fold Change (Pre- to Post-op),gene Usp48,−3.111
same,Fold Change (Pre- to Post-op),gene Ust,−5.289
same,Fold Change (Pre- to Post-op),gene Vcl,−3.025
same,Fold Change (Pre- to Post-op),gene Vldlr,−3.708
same,Fold Change (Pre- to Post-op),gene Vps13c,−9.132
same,Fold Change (Pre- to Post-op),gene Vps13d,−4.344
same,Fold Change (Pre- to Post-op),gene Vwa5b2,−4.585
same,Fold Change (Pre- to Post-op),gene Vwf,−5.511
same,Fold Change (Pre- to Post-op),gene Wasf2,−5.725
same,Fold Change (Pre- to Post-op),gene Wdfy3,−3.629
same,Fold Change (Pre- to Post-op),gene Wdr19,−6.358
same,Fold Change (Pre- to Post-op),gene Wdr81,−3.261
same,Fold Change (Pre- to Post-op),gene Wfs1,−3.458
same,Fold Change (Pre- to Post-op),gene Whrn,−6.862
same,Fold Change (Pre- to Post-op),gene Wipf2,−3.465
same,Fold Change (Pre- to Post-op),gene Wiz,−4.998
same,Fold Change (Pre- to Post-op),gene Wnk2,−7.591
same,Fold Change (Pre- to Post-op),gene Wnk4,−4.178
same,Fold Change (Pre- to Post-op),gene Wnt2b,−4.049
same,Fold Change (Pre- to Post-op),gene Wscd1,−3.538
same,Fold Change (Pre- to Post-op),gene Wwc2,−3.601
same,Fold Change (Pre- to Post-op),gene Xpnpep2,−5.854
same,Fold Change (Pre- to Post-op),gene Xpo4,−3.823
same,Fold Change (Pre- to Post-op),gene Xpo5,−3.483
same,Fold Change (Pre- to Post-op),gene Xpo6,−3.587
same,Fold Change (Pre- to Post-op),gene Xrn1,−3.581
same,Fold Change (Pre- to Post-op),gene Xylb,−3.192
same,Fold Change (Pre- to Post-op),gene Xylt1,−4.613
same,Fold Change (Pre- to Post-op),gene Ylpm1,−3.027
same,Fold Change (Pre- to Post-op),gene Zan,−4.025
same,Fold Change (Pre- to Post-op),gene Zbed3,−3.297
same,Fold Change (Pre- to Post-op),gene Zbtb4,−3.273
same,Fold Change (Pre- to Post-op),gene Zbtb7a,−4.116
same,Fold Change (Pre- to Post-op),gene Zbtb12,−6.781
same,Fold Change (Pre- to Post-op),gene Zbtb16,−5.056
same,Fold Change (Pre- to Post-op),gene Zbtb34,−13.15
same,Fold Change (Pre- to Post-op),gene Zbtb38,−4.98
same,Fold Change (Pre- to Post-op),gene Zbtb39,−5.896
same,Fold Change (Pre- to Post-op),gene Zc3h3,−5.66
same,Fold Change (Pre- to Post-op),gene Zc3h13,−3.523
same,Fold Change (Pre- to Post-op),gene Zcchc2,−4.607
same,Fold Change (Pre- to Post-op),gene Zcchc3,−4.568
same,Fold Change (Pre- to Post-op),gene Zcchc14,−3.022
same,Fold Change (Pre- to Post-op),gene Zdhhc23,−7.668
same,Fold Change (Pre- to Post-op),gene Zfand2b,3.034
same,Fold Change (Pre- to Post-op),gene Zfp39,−3.935
same,Fold Change (Pre- to Post-op),gene Zfp78,−4.208
same,Fold Change (Pre- to Post-op),gene Zfp142,−4.378
same,Fold Change (Pre- to Post-op),gene Zfp316,−6.6049
same,Fold Change (Pre- to Post-op),gene Zfp319,−4.835
same,Fold Change (Pre- to Post-op),gene Zfp362,−4.867
same,Fold Change (Pre- to Post-op),gene Zfp366,−5.36
same,Fold Change (Pre- to Post-op),gene Zfp369,−4.375
same,Fold Change (Pre- to Post-op),gene Zfp385a,−4.214
same,Fold Change (Pre- to Post-op),gene Zfp395,−7.634
same,Fold Change (Pre- to Post-op),gene Zfp398,−3.277
same,Fold Change (Pre- to Post-op),gene Zfp423,−6.103
same,Fold Change (Pre- to Post-op),gene Zfp462,−4.644
same,Fold Change (Pre- to Post-op),gene Zfp516,−4.953
same,Fold Change (Pre- to Post-op),gene Zfp526,−3.97
same,Fold Change (Pre- to Post-op),gene Zfp532,−4.928
same,Fold Change (Pre- to Post-op),gene Zfp553,−3.258
same,Fold Change (Pre- to Post-op),gene Zfp574,−4.871
same,Fold Change (Pre- to Post-op),gene Zfp592,−3.655
same,Fold Change (Pre- to Post-op),gene Zfp628,−3.704
same,Fold Change (Pre- to Post-op),gene Zfp629,−3.832
same,Fold Change (Pre- to Post-op),gene Zfp647,3.041
same,Fold Change (Pre- to Post-op),gene Zfp703,−4.487
same,Fold Change (Pre- to Post-op),gene Zfp704,−3.446
same,Fold Change (Pre- to Post-op),gene Zfp871,−3.045
same,Fold Change (Pre- to Post-op),gene Zfyve26,−3.656
same,Fold Change (Pre- to Post-op),gene Zkscan8,−3.104
same,Fold Change (Pre- to Post-op),gene Zkscan17,−3.061
same,Fold Change (Pre- to Post-op),gene Zmiz1,−6.799
same,Fold Change (Pre- to Post-op),gene Zmiz2,−4.971
same,Fold Change (Pre- to Post-op),gene Znfx1,−3.12
same,Fold Change (Pre- to Post-op),gene zfp777,−3.801
